{"source": "PubChem BioAssay AID290", "about": "(DTP/NCI, 2004)", "system": "mice, P1798 lymphosarcoma sc, survival or tumor weight T/C", "assay": "NCI In Vivo Anticancer Drug Screen. Data for tumor model P1798 Lymphosarcoma (subcutaneous) in unknown mice", "experimental": "The antitumor activity of compounds was measured in mice bearing transplantable tumors. Survival or tumor size were measured and the results are expressed as the measurement made in the treated group (T) divided by the measurement made in the vehicle treated control group (C). The tumor model used in this assay is P1798 Lymphosarcoma (subcutaneous) in unknown mice", "note": "The list does not hold the whole screen: it gathers tests that were run many times, whatever their T/C, doses with no T/C, and many T/C values between a quarter and a half above the control. Other doses and runs of a compound stand elsewhere. T/C gives the treated animals as a percentage of the vehicle group. Schedules are NCI's codes, read here as Q, the interval in days (D) or hours (H), X, the number of doses. Some doses have a count of surviving animals in place of a T/C: the source files T/C as zero there, which appears to mark a toxic dose or a test without result, not a measured value. Some survivor counts are full or nearly so, which does not show that the dose was tolerated: the source hardly ever lists a survival T/C far under the control, and the zero likely stands for such cases as well. Survivors were counted at the toxicity check, usually on the fifth day, unless a day is given; later deaths do not show. *1 amine or outer side, *2 acyl side, *3 side chain or, on linkers, in order; H or OH if unused. Where a SMILES comes first, the peptide text is derived from it. Bridges are numbered along the chain shown (N, C = ends). Roman numbers before positions name the chains, in order. [ ]: non-standard residue; d: D form. Actinocin(9to1) = Cc1c2oc3c(C)ccc(C(=O)[*:1])c3nc-2c(C(=O)[*:2])c(N)c1=O; aThr = C[C@H](O)[C@H](N)C(=O)O; NMeV = CN[C@H](C(=O)O)C(C)C; Sar = CNCC(=O)O"}
{"smiles": "[I][Hg][CH2]C1COC([CH2][Hg][I])CO1", "note": "(centres undefined)", "values": [{"measurement": "survivor count", "setting": "T/C endpoint: mean tumor weight, dose: 15.0 mg/kg/injection, schedule: Q01DX010 (ip), vehicle: carboxymethylcellulose (CMC), higher T/C = larger tumour", "result": "6 of 10"}]}
{"smiles": "C=CC(CN1CC1)OC(C)=O", "note": "(centres undefined)", "values": [{"measurement": "survivor count", "setting": "T/C endpoint: mean tumor weight, dose: 12.0 mg/kg/injection, schedule: Q01DX010 (ip), vehicle: saline, higher T/C = larger tumour", "result": "3 of 6"}]}
{"smiles": "O=c1cn[nH]c(=O)[nH]1", "values": [{"measurement": "survivor count", "setting": "T/C endpoint: mean tumor weight, dose: 187.5 mg/kg/injection, schedule: Q01DX010 (ip), vehicle: carboxymethylcellulose (CMC), higher T/C = larger tumour", "result": "5 of 10"}, {"measurement": "survivor count", "setting": "T/C endpoint: mean tumor weight, dose: 750.0 mg/kg/injection, schedule: Q01DX010 (ip), vehicle: carboxymethylcellulose (CMC), higher T/C = larger tumour", "result": "6 of 10"}, {"measurement": "survivor count", "setting": "T/C endpoint: mean tumor weight, dose: 1500.0 mg/kg/injection, schedule: Q01DX010 (ip), vehicle: carboxymethylcellulose (CMC), higher T/C = larger tumour", "result": "0 of 10"}]}
{"smiles": "OCC1OC(n2cnc3c(=S)nc[nH]c32)C(O)C1O", "note": "(centres undefined)", "values": [{"measurement": "survivor count", "setting": "T/C endpoint: mean tumor weight, dose: 62.5 mg/kg/injection, schedule: Q01DX010 (ip), vehicle: carboxymethylcellulose (CMC), higher T/C = larger tumour", "result": "1 of 10"}, {"measurement": "survivor count", "setting": "T/C endpoint: mean tumor weight, dose: 125.0 mg/kg/injection, schedule: Q01DX010 (ip), vehicle: carboxymethylcellulose (CMC), higher T/C = larger tumour", "result": "0 of 10"}, {"measurement": "survivor count", "setting": "T/C endpoint: mean tumor weight, dose: 250.0 mg/kg/injection, schedule: Q01DX010 (ip), vehicle: carboxymethylcellulose (CMC), higher T/C = larger tumour", "result": "0 of 10"}, {"measurement": "survivor count", "setting": "T/C endpoint: mean tumor weight, dose: 500.0 mg/kg/injection, schedule: Q01DX010 (ip), vehicle: carboxymethylcellulose (CMC), higher T/C = larger tumour", "result": "0 of 10"}]}
{"smiles": "CS(=O)(=O)OCCCCOS(C)(=O)=O", "values": [{"measurement": "survivor count", "setting": "T/C endpoint: mean survival time, dose: 0.5 mg/kg/injection, schedule: Q01DX010 (ip), vehicle: methylcellulose (MC), higher T/C = longer survival", "result": "10 of 10"}, {"measurement": "survivor count", "setting": "T/C endpoint: mean survival time, dose: 1.0 mg/kg/injection, schedule: Q01DX010 (ip), vehicle: methylcellulose (MC), higher T/C = longer survival", "result": "10 of 10"}, {"measurement": "survivor count", "setting": "T/C endpoint: mean survival time, dose: 2.0 mg/kg/injection, schedule: Q01DX010 (ip), vehicle: methylcellulose (MC), higher T/C = longer survival", "result": "10 of 10"}, {"measurement": "survivor count", "setting": "T/C endpoint: mean survival time, dose: 4.0 mg/kg/injection, schedule: Q01DX010 (ip), vehicle: methylcellulose (MC), higher T/C = longer survival", "result": "10 of 10"}, {"measurement": "survivor count", "setting": "T/C endpoint: mean tumor weight, dose: 32.0 mg/kg/injection, schedule: Q01DX010 (ip), vehicle: methylcellulose (MC), higher T/C = larger tumour", "result": "3 of 10"}]}
{"smiles": "Cn1cnc([N+](=O)[O-])c1Sc1nc(N)nc2nc[nH]c12", "values": [{"measurement": "survivor count", "setting": "T/C endpoint: mean tumor weight, dose: 20.0 mg/kg/injection, schedule: Q01DX010 (ip), vehicle: saline, higher T/C = larger tumour", "result": "0 of 6"}]}
{"smiles": "O=C(O)C(=O)c1ccc(-c2ccccc2)cc1", "values": [{"measurement": "survivor count", "setting": "T/C endpoint: mean tumor weight, dose: 250.0 mg/kg/injection, schedule: Q01DX010 (ip), vehicle: methylcellulose (MC), higher T/C = larger tumour", "result": "2 of 10"}, {"measurement": "survivor count", "setting": "T/C endpoint: mean tumor weight, dose: 500.0 mg/kg/injection, schedule: Q01DX010 (ip), vehicle: methylcellulose (MC), higher T/C = larger tumour", "result": "0 of 10"}]}
{"smiles": "C[C@]12CCC(=O)C=C1CC[C@H]1[C@@H]3CC[C@](O)(C(=O)CO)[C@@]3(C)C[C@H](O)[C@@]12F", "values": [{"measurement": "T/C", "setting": "T/C endpoint: mean tumor weight, dose: 10.0 mg/kg/injection, schedule: Q01DX015 (ip), vehicle: carboxymethylcellulose (CMC), run until all animals had died, higher T/C = larger tumour", "result": "140 % of control"}, {"measurement": "survivor count", "setting": "T/C endpoint: mean tumor weight, dose: 14.0 mg/kg/injection, schedule: Q01DX011 (sc), vehicle: steroid suspending solution, higher T/C = larger tumour", "result": "4 of 10"}, {"measurement": "survivor count", "setting": "T/C endpoint: mean tumor weight, dose: 21.0 mg/kg/injection, schedule: Q01DX011 (sc), vehicle: steroid suspending solution, higher T/C = larger tumour", "result": "0 of 10"}, {"measurement": "survivor count", "setting": "T/C endpoint: mean tumor weight, dose: 28.0 mg/kg/injection, schedule: Q01DX011 (sc), vehicle: steroid suspending solution, higher T/C = larger tumour", "result": "0 of 10"}]}
{"smiles": "Cc1c2oc3c(C)ccc(C(=O)N[C@@H]4C(=O)N[C@H](C(C)C)C(=O)N5CCC[C@H]5C(=O)N(C)CC(=O)N(C)[C@@H](C(C)C)C(=O)O[C@H]4C)c3nc-2c(C(=O)N[C@@H]2C(=O)N[C@H](C(C)C)C(=O)N3CCC[C@H]3C(=O)N(C)CC(=O)N(C)[C@@H](C(C)C)C(=O)O[C@H]2C)c(N)c1=O", "note": "(I: [aThr][dV]P[Sar][NMeV] / II: [aThr][dV]P[Sar][NMeV]; ester I:1-I:C, II:1-II:C; linker I:N-II:N via Actinocin(9to1))", "values": [{"measurement": "survivor count", "setting": "T/C endpoint: mean tumor weight, dose: 5.0 micrograms/kg/injection, schedule: Q01DX010 (ip), vehicle: saline, higher T/C = larger tumour", "result": "4 of 10"}, {"measurement": "survivor count", "setting": "T/C endpoint: mean tumor weight, dose: 50.0 micrograms/kg/injection, schedule: Q01DX010 (ip), vehicle: saline, higher T/C = larger tumour", "result": "0 of 10"}]}
{"smiles": "CS(=O)(=O)OCCCl", "values": [{"measurement": "survivor count", "setting": "T/C endpoint: mean tumor weight, dose: 100.0 mg/kg/injection, schedule: Q01DX010 (ip), vehicle: carboxymethylcellulose (CMC), higher T/C = larger tumour", "result": "4 of 10"}]}
